Among the data in the supplement of paper PMC12819154, “High-throughput peptide-centric local stability assay extends protein–ligand identification to membrane proteins, tissues and bacteria” (Nature Structural & Molecular Biology, 2025) are log2 fold change values, retold here.

Chains of the proteins cited; added tags and fusions are not shown. Lines headed by an entry give the natural chain unless they say otherwise; changes in a name come on top.
UniProt P55789: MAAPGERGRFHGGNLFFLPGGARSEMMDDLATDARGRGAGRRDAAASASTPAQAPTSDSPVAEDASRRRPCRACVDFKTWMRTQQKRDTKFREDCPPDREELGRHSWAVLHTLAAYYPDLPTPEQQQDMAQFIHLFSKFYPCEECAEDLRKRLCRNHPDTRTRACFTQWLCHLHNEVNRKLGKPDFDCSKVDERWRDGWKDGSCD
UniProt P55008: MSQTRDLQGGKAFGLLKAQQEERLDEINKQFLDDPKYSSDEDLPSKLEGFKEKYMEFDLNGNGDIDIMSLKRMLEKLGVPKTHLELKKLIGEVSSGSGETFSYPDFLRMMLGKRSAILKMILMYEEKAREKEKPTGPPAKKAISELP
UniProt P59190: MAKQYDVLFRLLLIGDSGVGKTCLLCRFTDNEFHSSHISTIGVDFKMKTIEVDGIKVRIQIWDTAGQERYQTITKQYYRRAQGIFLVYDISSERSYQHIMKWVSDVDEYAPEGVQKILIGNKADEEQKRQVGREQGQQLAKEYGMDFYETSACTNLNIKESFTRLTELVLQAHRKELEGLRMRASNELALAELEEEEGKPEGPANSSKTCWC
UniProt P62873, whole entry: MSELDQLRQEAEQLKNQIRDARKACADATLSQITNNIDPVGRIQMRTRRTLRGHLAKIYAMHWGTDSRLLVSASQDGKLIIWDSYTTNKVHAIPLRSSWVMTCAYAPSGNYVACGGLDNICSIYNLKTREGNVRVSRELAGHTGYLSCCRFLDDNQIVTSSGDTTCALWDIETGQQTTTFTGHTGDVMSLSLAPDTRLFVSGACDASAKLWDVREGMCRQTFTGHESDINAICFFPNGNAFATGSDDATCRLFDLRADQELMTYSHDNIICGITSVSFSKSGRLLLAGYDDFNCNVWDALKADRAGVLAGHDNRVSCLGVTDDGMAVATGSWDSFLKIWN
UniProt P58557: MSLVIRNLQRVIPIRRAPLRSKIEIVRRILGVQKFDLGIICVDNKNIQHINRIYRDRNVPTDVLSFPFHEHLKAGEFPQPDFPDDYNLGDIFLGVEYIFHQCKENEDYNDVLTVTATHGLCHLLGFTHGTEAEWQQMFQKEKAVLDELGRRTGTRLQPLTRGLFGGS

This is one part of the list. Most entries show no effect beyond the scatter of the controls.

Compound in the assay: Cc1nc(Nc2ncc(C(=O)Nc3c(C)cccc3Cl)s2)cc(N2CCN(CCO)CC2)n1 [dasatinib]
The experiment in a line: log2 fold change of tryptic peptide abundance, ligand vs vehicle (limited proteolysis) (log2 ratio); higher = more trypsin-susceptible (destabilized). As to conditions: ligand concentration: 5 uM; sample: K562 cleared lysate.
With “UniProt P62487 (peptide sequence: YFGPNLLNTVK, peptide start residue: 17)”, the log2 fold change is -0.238.

Take “GFER (peptide sequence: LGKPDFDCSKVDER, peptide start residue: 181) (UniProt P55789)”: the log2 fold change was -0.587.

As to “UniProt P62266 (peptide sequence: VQLIKNGK, peptide start residue: 72)”, the log2 fold change was -0.212.

“AIF1 (peptide sequence: THLELKK, peptide start residue: 82) (UniProt P55008)”: the log2 fold change came to 0.309.

Turning to “UniProt P59190 (peptide sequence: LLLIGDSGVGK, peptide start residue: 11)”, the log2 fold change was 0.0361.

Take “UniProt P62873 (peptide sequence: IYAMHWGTDSR, peptide start residue: 58)”: the log2 fold change was -0.11.

“YBEY (peptide sequence: NIQHINR, peptide start residue: 46) (UniProt P58557)”: the log2 fold change is -0.26.

Turning to “UniProt P63272 (peptide sequence: VSNFKPGVYAVSVTGRLPQGIVR, peptide start residue: 77)”, the log2 fold change worked out at 0.102.
